According to patent US20230140691A1, “OPTICALLY CLEAR, IN-SITU FORMING BIODEGRADABLE NANO-CARRIERS FOR OCULAR THERAPY, AND METHODS USING SAME” (Rowan University, priority 2017, published 2023):
At least one structure is not confirmed: it was looked up by name or label, or the drawing left a doubt.

Experiment: In vitro drug release from PLGA-PEG-PLGA hydrogel in microfluidic devices at physiological flow rate
Format: physicochemical
Conditions: 35° C.; for total amount of loaded drug released: in 8 days (212 hours)
Protocol: The final volume of the hydrogel solution with the compound of interest was constrained to 100 μL because of the anatomical space in the lens capsule. Physiological flow rate (2.4 μl/min) was achieved using microfluidic devices. The devices resemble the anatomical dimensions of both the anterior and posterior chamber of the human eye, as well as the physiological dynamics of the aqueous humor flow. All of the release studies were conducted at 35° C. • a. Dexamethasone (Hydrophobic): 100 μL of PLGA-PEG-PLGA hydrogel solution at 25 (w/v) % was mixed with 100 μg of dexamethasone. The collected samples were analyzed via HPLC. • b. […] The collected samples were analyzed via fluoresce spectroscopy at an excitation, filter, and emission wavelengths (nm) of 483, 515 524, respectively • c. Nucleic acid conjugates (Hydrophilic): 62 μL of nucleic acid conjugates in PBS solution (31 μg) were mixed with 38 μL of hydrogel solution at a concentration of 25 (w/v) %. Because the nucleic acid conjugates were already dissolved in PBS, the hydrogel solution was diluted down to 14 (w/v) %. The collected samples were analyzed via fluorescence spectroscopy at an excitation, filter, and emission wavelengths (nm) of 642, 665, and 670, respectively. • d. Hyaluronic acid (Hydrophilic): 30 μL of hyaluronic acid (HA, 800 KDa) stock solution at a concentration of 0.5 mg/mL in PBS (15 ug of HA) was mixed with 56 μL of hydrogel solution at a concentration of 25 (w/v) %. In addition, 14 μL of PBS were added to diluted the hydrogel solution down to 14 (w/v) %. Samples containing PLL were prepared by adding to the already mentioned composition 10 mg of PLL (10 (w/v) % PLL). The collected samples were analyzed via fluorescence spectroscopy at an excitation, filter, and emission wavelengths (nm) of 483, 495, 518, respectively.

For `C[C@@H]1C[C@H]2[C@@H]3CCC4=CC(=O)C=C[C@]4(C)[C@@]3(F)[C@@H](O)C[C@]2(C)[C@@]1(O)C(=O)CO` [dexamethasone, Dexamethasone], the “release rate of dexamethasone from hydrogel” value (first 100 hours, PLGA-PEG-PLGA hydrogel (LA/GA 15/1) 25 (w/v) %, 100 μg loaded, flow 2.4 μl/min) was 0.677 ± 0.035 µg/h, the “total amount of loaded drug released” value (25 (w/v) % hydrogel) was 88% and the “total amount of loaded drug released” value (25 (w/v) % hydrogel, listed as Dexamethasone) was 80%. For the same compound, the “release rate of dexamethasone from hydrogel” value (thereafter (after first 100 hours, to 212 hours), 25 (w/v) % hydrogel) was 0.376 ± 0.002 µg/h.
